PubChem BioAssay AID504784, Drosophila RNAi Screening Center, 2011
The screen tested about 17,000 reagents; this is a random part of those with a known target gene and a result. 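Each column is one replicate's B-score; the combined score over replicates was not deposited, so single values may mislead.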 A plus sign joins genes that one reagent is predicted to hit. Not all columns of the deposit are shown.

Screen: 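Search for regulators of lipid droplet storage in oleate-fed fly cells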 (primary screen)
System: Drosophila Kc167 embryonic cells
Reagents: long dsRNA against Drosophila genes, about 250 ng dsRNA per well
Duration: 4 days
Treatment: cells fed 400 µM oleic acid bound to BSA
Read-out: 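Microscope images give a droplet-to-nucleus area ratio, taken as log and converted to a screen-wide B-score; higher values mean greater lipid storage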
Reading the numbers: droplet/nuclear area B-score: higher = more stored lipid (overstorage)

Zw10 [DRSC18793] → droplet/nuclear area B-score, replicate 1: -1.64
CG42268 [DRSC10171] → droplet/nuclear area B-score, replicate 1: 1.09
CG42268 [DRSC10702] → droplet/nuclear area B-score, replicate 1: 0.569
CG42268 [DRSC21797] → droplet/nuclear area B-score, replicate 1: -0.711
CG12643 [DRSC17849] → droplet/nuclear area B-score, replicate 1: -0.01
Incenp [DRSC06116] → droplet/nuclear area B-score, replicate 1: 0.636
Incenp [DRSC21950] → droplet/nuclear area B-score, replicate 1: 0.23
CG31676 [DRSC02387] → droplet/nuclear area B-score, replicate 1: 0.997
ds [DRSC00815] → droplet/nuclear area B-score, replicate 1: -1.09
CG12985 [DRSC19505] → droplet/nuclear area B-score, replicate 1: -0.919
Cyp28c1 [DRSC20236] → droplet/nuclear area B-score, replicate 1: 0.448
ImpE1 [DRSC11195] → droplet/nuclear area B-score, replicate 1: -0.213
ImpE1 [DRSC11196] → droplet/nuclear area B-score, replicate 1: 0.164
TfIIA-S-2 [DRSC17791] → droplet/nuclear area B-score, replicate 1: 0.343
CG1428 [DRSC03708] → droplet/nuclear area B-score, replicate 1: 1.13
CG18563 [DRSC02676] → droplet/nuclear area B-score, replicate 1: -0.177
Try29F [DRSC03466] → droplet/nuclear area B-score, replicate 1: -0.654
Pp4-19C [DRSC20559] → droplet/nuclear area B-score, replicate 1: -2.28
Pp4-19C [DRSC21251] → droplet/nuclear area B-score, replicate 1: -0.111
Pp4-19C [DRSC23319] → droplet/nuclear area B-score, replicate 1: 0.706
CG2962 [DRSC18247] → droplet/nuclear area B-score, replicate 1: -0.0484
Lcp65Af [DRSC11213] → droplet/nuclear area B-score, replicate 1: -1.46
Dfd [DRSC12593] → droplet/nuclear area B-score, replicate 1: 1.26
Zpr1 [DRSC18432] → droplet/nuclear area B-score, replicate 1: -0.963
GC2 [DRSC14476] → droplet/nuclear area B-score, replicate 1: 1.11
tacc [DRSC12019] → droplet/nuclear area B-score, replicate 1: -1.63
tacc [DRSC12388] → droplet/nuclear area B-score, replicate 1: -1.79
CG13360 [DRSC18536] → droplet/nuclear area B-score, replicate 1: 3.26
CalpA [DRSC07352] → droplet/nuclear area B-score, replicate 1: -0.0101
Df31 [DRSC03738] → droplet/nuclear area B-score, replicate 1: 0.798
Df31 [DRSC22163] → droplet/nuclear area B-score, replicate 1: -1.1
wake [DRSC16148] → droplet/nuclear area B-score, replicate 1: 0.307
wake [DRSC16149] → droplet/nuclear area B-score, replicate 1: 1.92
CG30022 [DRSC22405] → droplet/nuclear area B-score, replicate 1: -0.206
RPA1 [DRSC16830] → droplet/nuclear area B-score, replicate 1: -3.7
CG12730 [DRSC17885] → droplet/nuclear area B-score, replicate 1: -0.259
CG7275 [DRSC10796] → droplet/nuclear area B-score, replicate 1: -0.864
Boot [DRSC06412] → droplet/nuclear area B-score, replicate 1: 0.0208
CG2991 [DRSC00559] → droplet/nuclear area B-score, replicate 1: 0.296
CG17239 [DRSC00492] → droplet/nuclear area B-score, replicate 1: -0.954
Spx [DRSC18720] → droplet/nuclear area B-score, replicate 1: -3.66
Ir76b [DRSC10831] → droplet/nuclear area B-score, replicate 1: 0.0281
CG4563 [DRSC04474] → droplet/nuclear area B-score, replicate 1: -0.349
Dyro [DRSC10598] → droplet/nuclear area B-score, replicate 1: 0.303
Tsp42Ep [DRSC06871] → droplet/nuclear area B-score, replicate 1: -1.31
Inx6 [DRSC20579] → droplet/nuclear area B-score, replicate 1: 1.68
Acp36DE [DRSC01860] → droplet/nuclear area B-score, replicate 1: 1.13
CG12054 [DRSC14467] → droplet/nuclear area B-score, replicate 1: 0.43
CG12054 [DRSC23137] → droplet/nuclear area B-score, replicate 1: 0.00143
GluRIB + CG42509 (retired record) [DRSC10258] → droplet/nuclear area B-score, replicate 1: 0.656
GluRIB + CG42509 (retired record) [DRSC11177] → droplet/nuclear area B-score, replicate 1: 0.00201
